Data taken from the supplement of paper PMC6411743.
± gives the standard deviation of the averaged measurements. Only a part is listed here, and it is no random draw.

Chains of the proteins cited; added tags and fusions are not shown. Lines headed by an entry give the natural chain unless they say otherwise; changes in a name come on top.
UniProt P19105: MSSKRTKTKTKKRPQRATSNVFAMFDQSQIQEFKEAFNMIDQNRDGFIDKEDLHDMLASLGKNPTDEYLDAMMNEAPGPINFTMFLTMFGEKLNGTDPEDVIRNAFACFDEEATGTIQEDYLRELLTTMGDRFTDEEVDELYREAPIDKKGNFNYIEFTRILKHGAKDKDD
UniProt O14950, whole entry, looked up: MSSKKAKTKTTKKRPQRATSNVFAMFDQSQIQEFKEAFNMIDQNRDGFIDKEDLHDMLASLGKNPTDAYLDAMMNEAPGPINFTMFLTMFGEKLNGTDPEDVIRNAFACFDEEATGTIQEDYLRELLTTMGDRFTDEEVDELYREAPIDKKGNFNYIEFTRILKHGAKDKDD
UniProt Q9NWW5: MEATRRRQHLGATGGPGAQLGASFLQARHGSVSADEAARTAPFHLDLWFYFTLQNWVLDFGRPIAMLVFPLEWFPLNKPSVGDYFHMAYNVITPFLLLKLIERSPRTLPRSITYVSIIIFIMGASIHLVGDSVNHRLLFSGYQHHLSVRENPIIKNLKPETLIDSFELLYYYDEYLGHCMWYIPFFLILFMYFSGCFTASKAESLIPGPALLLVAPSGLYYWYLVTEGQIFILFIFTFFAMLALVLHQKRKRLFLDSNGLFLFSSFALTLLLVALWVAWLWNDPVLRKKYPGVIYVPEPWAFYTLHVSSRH
UniProt Q13686: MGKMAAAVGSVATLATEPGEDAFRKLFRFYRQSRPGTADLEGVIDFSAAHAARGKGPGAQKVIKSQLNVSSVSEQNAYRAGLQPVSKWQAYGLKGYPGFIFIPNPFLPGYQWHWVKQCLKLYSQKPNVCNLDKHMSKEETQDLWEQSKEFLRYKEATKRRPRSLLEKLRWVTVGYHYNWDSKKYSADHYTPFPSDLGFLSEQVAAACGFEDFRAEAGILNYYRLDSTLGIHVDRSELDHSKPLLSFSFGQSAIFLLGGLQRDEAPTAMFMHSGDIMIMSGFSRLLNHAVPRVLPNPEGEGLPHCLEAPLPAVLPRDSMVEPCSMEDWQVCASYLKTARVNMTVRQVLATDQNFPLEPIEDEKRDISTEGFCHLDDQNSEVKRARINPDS
UniProt Q8WWM7: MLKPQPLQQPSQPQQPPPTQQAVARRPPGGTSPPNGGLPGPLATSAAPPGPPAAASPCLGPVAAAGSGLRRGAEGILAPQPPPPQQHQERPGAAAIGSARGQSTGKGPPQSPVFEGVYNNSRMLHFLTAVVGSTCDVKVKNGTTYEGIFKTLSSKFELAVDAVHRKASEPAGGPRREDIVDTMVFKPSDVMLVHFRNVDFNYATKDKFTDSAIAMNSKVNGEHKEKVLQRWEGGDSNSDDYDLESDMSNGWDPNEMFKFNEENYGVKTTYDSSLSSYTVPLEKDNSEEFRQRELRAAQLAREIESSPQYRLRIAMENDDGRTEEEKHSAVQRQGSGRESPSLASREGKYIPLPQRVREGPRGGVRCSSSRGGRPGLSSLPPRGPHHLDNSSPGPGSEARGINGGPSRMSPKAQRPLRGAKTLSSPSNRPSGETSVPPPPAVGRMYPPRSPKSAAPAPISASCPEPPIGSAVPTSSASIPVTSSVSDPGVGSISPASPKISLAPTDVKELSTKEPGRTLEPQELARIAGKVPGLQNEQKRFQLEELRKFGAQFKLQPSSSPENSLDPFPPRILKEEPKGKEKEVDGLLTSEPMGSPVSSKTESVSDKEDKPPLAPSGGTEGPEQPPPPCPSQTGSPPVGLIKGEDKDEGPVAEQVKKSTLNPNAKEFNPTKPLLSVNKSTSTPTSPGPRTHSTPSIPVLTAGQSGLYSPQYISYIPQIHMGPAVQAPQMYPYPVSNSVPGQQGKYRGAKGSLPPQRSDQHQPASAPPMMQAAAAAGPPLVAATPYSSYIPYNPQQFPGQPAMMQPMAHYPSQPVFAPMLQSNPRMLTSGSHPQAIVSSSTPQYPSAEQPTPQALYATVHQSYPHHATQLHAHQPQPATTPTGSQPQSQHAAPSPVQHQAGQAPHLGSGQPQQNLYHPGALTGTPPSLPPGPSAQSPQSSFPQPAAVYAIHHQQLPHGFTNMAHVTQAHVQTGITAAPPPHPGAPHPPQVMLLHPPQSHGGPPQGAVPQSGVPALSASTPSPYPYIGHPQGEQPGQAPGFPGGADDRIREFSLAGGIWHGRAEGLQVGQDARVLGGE
UniProt Q9Y2L5: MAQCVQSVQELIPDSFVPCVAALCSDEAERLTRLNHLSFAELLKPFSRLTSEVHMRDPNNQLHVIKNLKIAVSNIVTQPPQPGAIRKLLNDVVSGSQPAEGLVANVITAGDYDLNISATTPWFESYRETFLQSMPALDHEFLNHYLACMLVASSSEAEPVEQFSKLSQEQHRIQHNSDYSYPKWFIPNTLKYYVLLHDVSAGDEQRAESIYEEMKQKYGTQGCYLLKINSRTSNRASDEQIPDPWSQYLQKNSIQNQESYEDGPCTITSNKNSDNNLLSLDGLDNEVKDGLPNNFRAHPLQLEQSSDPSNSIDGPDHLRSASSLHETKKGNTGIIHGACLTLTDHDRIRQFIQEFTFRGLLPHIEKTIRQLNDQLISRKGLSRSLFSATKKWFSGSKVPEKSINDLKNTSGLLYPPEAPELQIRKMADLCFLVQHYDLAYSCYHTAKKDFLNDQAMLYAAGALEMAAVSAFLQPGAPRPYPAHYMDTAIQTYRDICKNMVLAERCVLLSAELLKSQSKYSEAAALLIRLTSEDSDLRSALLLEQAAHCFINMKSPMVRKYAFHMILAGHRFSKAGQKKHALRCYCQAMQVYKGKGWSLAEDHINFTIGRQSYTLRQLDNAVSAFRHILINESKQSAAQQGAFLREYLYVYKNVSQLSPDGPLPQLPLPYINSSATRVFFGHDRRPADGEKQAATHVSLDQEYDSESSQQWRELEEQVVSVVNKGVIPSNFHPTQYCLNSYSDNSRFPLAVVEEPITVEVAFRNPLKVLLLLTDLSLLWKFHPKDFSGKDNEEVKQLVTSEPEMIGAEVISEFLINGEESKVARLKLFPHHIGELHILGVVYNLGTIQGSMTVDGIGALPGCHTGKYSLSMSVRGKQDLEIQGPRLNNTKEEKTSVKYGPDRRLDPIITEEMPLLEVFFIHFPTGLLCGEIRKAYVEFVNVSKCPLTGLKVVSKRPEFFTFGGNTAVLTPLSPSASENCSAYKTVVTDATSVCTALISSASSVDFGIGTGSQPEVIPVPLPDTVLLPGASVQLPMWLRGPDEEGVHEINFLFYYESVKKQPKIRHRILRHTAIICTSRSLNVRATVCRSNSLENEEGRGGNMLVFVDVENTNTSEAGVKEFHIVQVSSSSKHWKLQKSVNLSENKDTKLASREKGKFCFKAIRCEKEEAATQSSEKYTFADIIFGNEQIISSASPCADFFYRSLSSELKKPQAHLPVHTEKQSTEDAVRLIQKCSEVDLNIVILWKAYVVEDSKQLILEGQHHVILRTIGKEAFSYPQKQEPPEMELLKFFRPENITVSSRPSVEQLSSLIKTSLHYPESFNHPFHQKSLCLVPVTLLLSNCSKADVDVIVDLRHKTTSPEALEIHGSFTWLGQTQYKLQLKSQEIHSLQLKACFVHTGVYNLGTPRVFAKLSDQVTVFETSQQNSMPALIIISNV
UniProt Q5SW79: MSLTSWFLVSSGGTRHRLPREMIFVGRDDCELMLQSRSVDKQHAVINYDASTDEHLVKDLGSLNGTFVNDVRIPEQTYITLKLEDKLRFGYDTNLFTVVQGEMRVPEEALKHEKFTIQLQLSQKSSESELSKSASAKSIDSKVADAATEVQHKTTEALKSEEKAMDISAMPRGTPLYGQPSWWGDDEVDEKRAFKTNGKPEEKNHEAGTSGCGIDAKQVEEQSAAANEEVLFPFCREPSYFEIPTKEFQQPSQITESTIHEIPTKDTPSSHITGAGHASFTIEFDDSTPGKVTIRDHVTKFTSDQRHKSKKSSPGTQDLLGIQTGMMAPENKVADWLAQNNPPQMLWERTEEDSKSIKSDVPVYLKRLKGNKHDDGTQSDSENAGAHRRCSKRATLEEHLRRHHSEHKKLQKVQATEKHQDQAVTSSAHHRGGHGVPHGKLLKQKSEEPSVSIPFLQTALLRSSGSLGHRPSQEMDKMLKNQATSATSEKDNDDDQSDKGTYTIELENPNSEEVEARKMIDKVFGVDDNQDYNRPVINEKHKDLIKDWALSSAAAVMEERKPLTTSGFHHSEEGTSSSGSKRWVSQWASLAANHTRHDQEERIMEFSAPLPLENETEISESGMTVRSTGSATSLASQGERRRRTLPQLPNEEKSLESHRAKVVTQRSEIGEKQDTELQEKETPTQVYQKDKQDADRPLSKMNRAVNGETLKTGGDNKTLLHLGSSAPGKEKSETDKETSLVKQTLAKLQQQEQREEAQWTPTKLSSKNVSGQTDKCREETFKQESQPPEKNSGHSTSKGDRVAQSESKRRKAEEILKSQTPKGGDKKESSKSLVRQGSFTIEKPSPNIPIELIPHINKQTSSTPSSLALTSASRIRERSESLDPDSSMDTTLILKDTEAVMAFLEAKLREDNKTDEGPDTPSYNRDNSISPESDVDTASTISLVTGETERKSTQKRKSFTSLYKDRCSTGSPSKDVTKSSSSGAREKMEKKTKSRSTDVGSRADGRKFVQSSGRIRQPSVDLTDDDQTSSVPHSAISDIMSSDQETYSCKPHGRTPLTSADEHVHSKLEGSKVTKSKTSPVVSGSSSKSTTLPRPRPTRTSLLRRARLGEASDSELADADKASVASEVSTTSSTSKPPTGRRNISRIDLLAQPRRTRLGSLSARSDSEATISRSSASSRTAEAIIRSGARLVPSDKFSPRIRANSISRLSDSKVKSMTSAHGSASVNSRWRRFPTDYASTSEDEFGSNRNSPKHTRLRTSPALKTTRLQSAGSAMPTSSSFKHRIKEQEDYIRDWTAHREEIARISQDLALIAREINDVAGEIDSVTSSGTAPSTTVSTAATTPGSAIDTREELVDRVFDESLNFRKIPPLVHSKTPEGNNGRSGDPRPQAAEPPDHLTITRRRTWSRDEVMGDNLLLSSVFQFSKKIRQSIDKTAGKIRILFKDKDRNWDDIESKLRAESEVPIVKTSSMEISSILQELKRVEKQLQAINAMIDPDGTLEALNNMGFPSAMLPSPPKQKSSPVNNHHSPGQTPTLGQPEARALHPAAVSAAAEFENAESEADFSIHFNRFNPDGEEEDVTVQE
UniProt Q15762: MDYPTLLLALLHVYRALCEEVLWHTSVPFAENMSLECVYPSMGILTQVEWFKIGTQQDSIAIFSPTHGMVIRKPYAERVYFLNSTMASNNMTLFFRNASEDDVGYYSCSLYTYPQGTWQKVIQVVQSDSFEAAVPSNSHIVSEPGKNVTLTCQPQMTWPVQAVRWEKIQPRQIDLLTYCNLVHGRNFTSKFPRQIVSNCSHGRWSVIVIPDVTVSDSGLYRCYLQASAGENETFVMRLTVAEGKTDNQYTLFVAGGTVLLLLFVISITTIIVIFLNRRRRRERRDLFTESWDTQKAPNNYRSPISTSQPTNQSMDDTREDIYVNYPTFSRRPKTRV
UniProt Q9H8U3: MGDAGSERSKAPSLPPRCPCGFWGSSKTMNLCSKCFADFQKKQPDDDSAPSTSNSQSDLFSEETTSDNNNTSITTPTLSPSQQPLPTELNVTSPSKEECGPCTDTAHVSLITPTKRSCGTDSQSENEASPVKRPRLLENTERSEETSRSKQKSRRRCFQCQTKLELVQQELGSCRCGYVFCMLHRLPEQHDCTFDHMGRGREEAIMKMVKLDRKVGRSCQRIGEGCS
UniProt Q99708: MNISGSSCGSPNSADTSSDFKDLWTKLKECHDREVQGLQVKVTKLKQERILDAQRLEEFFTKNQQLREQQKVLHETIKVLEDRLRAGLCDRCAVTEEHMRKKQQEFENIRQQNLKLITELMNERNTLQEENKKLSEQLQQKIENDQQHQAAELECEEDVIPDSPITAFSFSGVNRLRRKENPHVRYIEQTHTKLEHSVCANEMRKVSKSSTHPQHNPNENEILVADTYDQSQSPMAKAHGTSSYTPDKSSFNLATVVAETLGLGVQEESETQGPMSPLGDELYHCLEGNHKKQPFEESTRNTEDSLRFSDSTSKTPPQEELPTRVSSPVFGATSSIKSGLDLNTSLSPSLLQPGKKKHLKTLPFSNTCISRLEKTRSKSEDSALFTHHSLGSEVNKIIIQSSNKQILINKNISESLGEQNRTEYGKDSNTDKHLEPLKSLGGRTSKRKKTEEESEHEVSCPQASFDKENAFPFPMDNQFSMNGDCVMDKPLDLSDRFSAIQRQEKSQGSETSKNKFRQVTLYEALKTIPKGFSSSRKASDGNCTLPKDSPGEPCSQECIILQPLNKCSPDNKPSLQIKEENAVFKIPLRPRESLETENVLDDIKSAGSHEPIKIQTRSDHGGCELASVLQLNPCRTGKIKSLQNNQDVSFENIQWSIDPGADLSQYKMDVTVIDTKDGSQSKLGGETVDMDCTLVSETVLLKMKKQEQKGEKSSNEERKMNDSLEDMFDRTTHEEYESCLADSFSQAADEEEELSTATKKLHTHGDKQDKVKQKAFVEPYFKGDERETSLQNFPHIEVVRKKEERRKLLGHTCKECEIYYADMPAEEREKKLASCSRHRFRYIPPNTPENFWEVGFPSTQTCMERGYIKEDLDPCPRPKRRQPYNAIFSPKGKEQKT

Compound: Nc1ncnc2c1ncn2[C@@H]1O[C@H](COP(=O)(O)OP(=O)(O)NP(=O)(O)O)[C@@H](O)[C@H]1O [adenylyl imidodiphosphate]
Test: NP40-soluble protein abundance relative to vehicle (solubility fold change) (ratio); higher = more soluble protein in presence of AMP-PNP
In short: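 Values are fold changes against the detergent-processed vehicle, based on vsn-normalised intensities. Jurkat crude lysate was treated at eight concentrations from 0.1 to 10 mM (10 min at room temperature, then 3 min at 37 °C), solubilised with 0.8% NP40 and benzonase, ultracentrifuged and analysed by TMT-labelled LC-MS/MS over three independent experiments.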

Target | NP40-soluble protein abundance (concentration: 1mM) | NP40-soluble protein abundance (concentration: 2mM) | NP40-soluble protein abundance (concentration: 4mM) | NP40-soluble protein abundance (concentration: 6mM) | NP40-soluble protein abundance (concentration: 8mM) | NP40-soluble protein abundance (concentration: 10mM)
G8JLH9 and related entries (UniProt P40763) | 1.02 ± 0.019 | 0.993 ± 0.075 | 1 ± 0.064 | 0.966 ± 0.011 | 0.959 ± 0.042 | 0.955 ± 0.053
G5E994 and related entries (UniProt Q5VW38) | 1.026 ± 0.0089 | 1.01 ± 0.018 | 0.976 ± 0.02 | 0.983 ± 0.024 | 1.01 ± 0.021 | 1.018 ± 0.0091
H0Y7L2 and related entries (UniProt Q96N67) | 0.9785 ± 0.0054 | 0.956 ± 0.09 | 0.961 ± 0.044 | 0.971 ± 0.065 | 0.977 ± 0.11 | 0.963 ± 0.13
J3QRS3 and related entries (UniProt P19105+O14950+J3QRS3) | 1.07 ± 0.044 | 1.13 ± 0.059 | 1.03 ± 0.061 | 1.01 ± 0.044 | 0.965 ± 0.044 | 0.973 ± 0.027
H7C1N3 and related entries (UniProt O15155) | 0.965 ± 0.055 | 0.977 ± 0.036 | 0.951 ± 0.022 | 0.975 ± 0.036 | 0.995 ± 0.063 | 0.955 ± 0.053
K7EJ78 and related entries (UniProt P62841) | 1.01 ± 0.047 | 0.98 ± 0.078 | 0.985 ± 0.07 | 0.951 ± 0.072 | 0.946 ± 0.042 | 0.976 ± 0.12
J3KQ32 and related entries (UniProt Q9NTK5) | 0.942 ± 0.039 | 0.9294 ± 0.0082 | 0.934 ± 0.038 | 0.992 ± 0.052 | 0.9996 ± 0.0064 | 0.992 ± 0.032
H1UBN3 and related entries (UniProt O95067+H1UBN3) | 1.011 ± 0.008 | 1.03 ± 0.016 | 1 ± 0.02 | 0.982 ± 0.018 | 1.03 ± 0.063 | 1.016 ± 0.0047
H0YIV9 and related entries (UniProt O43716+H0YIV9) | 0.973 ± 0.038 | 1.02 ± 0.038 | 1.01 ± 0.03 | 0.988 ± 0.012 | 0.977 ± 0.015 | 0.962 ± 0.013
I6L8B7 and related entries (UniProt Q01469) | 1.04 ± 0.047 | 1.02 ± 0.011 | 1.02 ± 0.011 | 1.11 ± 0.07 | 1.1 ± 0.092 | 1.09 ± 0.079
H3BUV4 and related entries (UniProt Q9NWW5) | 1.03 ± 0.015 | 0.939 ± 0.13 | 1 ± 0.027 | 1.03 ± 0.011 | 1.05 ± 0.016 | 1.03 ± 0.07
J3KNN5 and related entries (UniProt Q9UJV9) | 1.11 ± 0.029 | 1.1 ± 0.043 | 1.13 ± 0.073 | 1.12 ± 0.035 | 1.15 ± 0.053 | 1.22 ± 0.065
H0YJF3 and related entries (UniProt Q13686) | 0.9813 ± 0.0041 | 0.9829 ± 0.0011 | 0.9693 ± 0.0041 | 0.992 ± 0.016 | 0.992 ± 0.027 | 0.967 ± 0.018
J9JIE6 and related entries (UniProt Q9UM00) | 1 ± 0.034 | 1.03 ± 0.029 | 1.03 ± 0.031 | 1.05 ± 0.039 | 1.06 ± 0.028 | 1.09 ± 0.051
H3BNF9 and related entries (UniProt Q9Y2V0) | 0.941 ± 0.027 | 0.939 ± 0.036 | 0.925 ± 0.022 | 0.898 ± 0.027 | 0.9264 ± 0.0073 | 0.871 ± 0.0055
H3BPE7 and related entries (UniProt P35637) | 1.07 ± 0.03 | 1.19 ± 0.057 | 1.15 ± 0.056 | 1.22 ± 0.05 | 1.23 ± 0.087 | 1.296 ± 0.0023

Looked up one by one from the entries so far:
Target | NP40-soluble protein abundance (concentration: 1mM) | NP40-soluble protein abundance (concentration: 2mM) | NP40-soluble protein abundance (concentration: 4mM) | NP40-soluble protein abundance (concentration: 6mM) | NP40-soluble protein abundance (concentration: 8mM) | NP40-soluble protein abundance (concentration: 10mM)
J3KQ32 and related entries (UniProt Q9NTK5) | 0.942 ± 0.039 | 0.9294 ± 0.0082 | 0.934 ± 0.038 | 0.992 ± 0.052 | 0.9996 ± 0.0064 | 0.992 ± 0.032
H7C1N3 and related entries (UniProt O15155) | 0.965 ± 0.055 | 0.977 ± 0.036 | 0.951 ± 0.022 | 0.975 ± 0.036 | 0.995 ± 0.063 | 0.955 ± 0.053

Continuation:

Target | NP40-soluble protein abundance (concentration: 1mM) | NP40-soluble protein abundance (concentration: 2mM) | NP40-soluble protein abundance (concentration: 4mM) | NP40-soluble protein abundance (concentration: 6mM) | NP40-soluble protein abundance (concentration: 8mM) | NP40-soluble protein abundance (concentration: 10mM)
H3BUF6 and related entries (UniProt Q8WWM7) | 1.027 ± 0.0083 | 1.1 ± 0.094 | 1.04 ± 0.033 | 1.05 ± 0.024 | 1.01 ± 0.021 | 1.07 ± 0.033
J3QQJ5 and related entries (UniProt Q9Y2L5) | 0.965 ± 0.013 | 0.907 ± 0.074 | 0.9455 ± 0.0081 | 0.9113 ± 0.0088 | 0.942 ± 0.058 | 0.886 ± 0.021
J9JID7 and related entries (UniProt Q03252) | 0.989 ± 0.026 | 0.964 ± 0.029 | 0.875 ± 0.042 | 0.81 ± 0.0095 | 0.734 ± 0.023 | 0.769 ± 0.045
H7C0G7 and related entries (UniProt Q9H9Q4) | 1.05 ± 0.041 | 1.09 ± 0.05 | 1.05 ± 0.042 | 1.04 ± 0.053 | 1.08 ± 0.057 | 1.05 ± 0.045
H0Y4T4 and related entries (UniProt Q5SW79) | 1.02 ± 0.024 | 1.02 ± 0.028 | 0.99 ± 0.042 | 0.951 ± 0.058 | 0.923 ± 0.042 | 0.942 ± 0.064
H0YD36 and related entries (UniProt P54098) | 0.984 ± 0.018 | 0.95 ± 0.017 | 0.963 ± 0.018 | 0.941 ± 0.022 | 0.969 ± 0.035 | 0.952 ± 0.04
H7C1W4 and related entries (UniProt Q93075+H7C1W4) | 1.01 ± 0.013 | 0.9922 ± 0.0029 | 1 ± 0.022 | 0.991 ± 0.016 | 1.0104 ± 0.00041 | 0.9903 ± 0.0013
I3L4C2 and related entries (UniProt Q9UQB8) | 1.015 ± 0.01 | 1.02 ± 0.026 | 0.981 ± 0.036 | 0.999 ± 0.026 | 0.9945 ± 0.0095 | 0.97 ± 0.016
J3QR77 and related entries (UniProt Q15762) | 0.967 ± 0.015 | 0.976 ± 0.016 | 0.9985 ± 0.0029 | 0.974 ± 0.053 | 1.01 ± 0.019 | 0.989 ± 0.014
H0Y398 and related entries (UniProt Q9H8U3) | 0.988 ± 0.01 | 1.04 ± 0.039 | 0.993 ± 0.035 | 1.01 ± 0.02 | 1.03 ± 0.025 | 1.04 ± 0.013
J3QL56 and related entries (UniProt O75880) | 1 ± 0.029 | 0.998 ± 0.014 | 0.971 ± 0.015 | 1.017 ± 0.0091 | 0.96 ± 0.032 | 0.978 ± 0.042
J3KN10 and related entries (UniProt P42356) | 1.02 ± 0.017 | 1.05 ± 0.058 | 1.03 ± 0.067 | 0.997 ± 0.043 | 1.01 ± 0.016 | 1.04 ± 0.066
I3L2B0 and related entries (UniProt O75153) | 1 ± 0.024 | 0.963 ± 0.028 | 0.977 ± 0.019 | 0.951 ± 0.013 | 0.959 ± 0.031 | 0.949 ± 0.014
I6L8A6 and related entries (UniProt Q99708) | 0.981 ± 0.029 | 0.989 ± 0.022 | 1.02 ± 0.067 | 0.975 ± 0.075 | 0.97 ± 0.065 | 0.956 ± 0.054
G3V4K3 and related entries (UniProt Q9H9C1) | 0.987 ± 0.019 | 0.929 ± 0.054 | 0.961 ± 0.013 | 0.9324 ± 0.0074 | 0.939 ± 0.015 | 0.925 ± 0.019
I3L112 and related entries (UniProt P52429) | 1.01 ± 0.041 | 0.963 ± 0.064 | 1.03 ± 0.021 | 0.973 ± 0.021 | 1.014 ± 0.0051 | 0.99 ± 0.02
